# The campaign covered roughly 300,000 compounds. About 3,700 (1.2%) were called active. The inconclusive results got no clear call from the source; some entries with a clear call stand among them for comparison. Calls follow the shape of the full dose curve; tested in HEK293 cells. Potencies of inconclusive entries are doubtful fits and often do not repeat.
# Experiment: qHTS for Inhibitors of binding or entry into cells for Lassa Virus; also: nearly all actives have a fitted effect of over 50% in size
# Conditions: Lassa virus pseudotype entry inhibition, cell reporter; activity change, negative = inhibition: at 37.9 µM (top of the series) unless noted
# % is scaled to controls: 0 for no effect and ±100 for the full control effect; potency is read from the fitted curve at half-maximal effect.
SMILES,"activity change, negative = inhibition",Potency
CCN1CC2(COC(=O)c3ccccc3N)CCC(OC)C34C5CC6C(OC)CC(O)(C5C6OC)C(O)(C(OC)C23)C14 (stereo unspecified),inactive: 12.9%,–
C=C1C(=O)C23C(O)C1CCC2C12CCCC(C)(COC(C)=O)C1C(O)C3(O)OC2 (stereo unspecified),–,active: 11.2 µM
O=C1c2cccc3cc([N+](=O)[O-])cc(c23)C(=O)N1/N=C/c1ccc(O)cc1O,–,"inconclusive: 11.2 µM [inhibitor, partial curve, poor fit]"
Cc1ccc(S(C)(=O)=O)cc1C(=O)OCC(=O)N1CCCC1=O,–,"inconclusive: 2.51 µM [inhibitor, single point]"
CCc1ccccc1N(C1=NCCCS1)S(=O)(=O)c1ccc(C(C)(C)C)cc1,inactive: -25.3%,–
COc1ccc(NC(=S)NC(=NS(=O)(=O)c2ccc(Cl)cc2)c2ccccc2)cc1,–,"inconclusive: 35.5 µM [inhibitor, single point]"
Cc1c(C(=O)NCCc2ccc(Cl)cc2)sc2nc3n(c(=O)c12)CCCC3,–,"inconclusive: 3.16 µM [inhibitor, single point]"
Cc1noc(C)c1CSCC(=O)Nc1cc(C(F)(F)F)ccc1N1CCCCC1,–,"inconclusive: 20 µM [inhibitor, single point]"
Cc1cccc(N(CC(=O)NCCSc2ccccn2)S(=O)(=O)c2ccccc2)c1,–,"inconclusive: 23.1 µM [inhibitor, single point]"
CC(C)C1C(=O)N(Cc2cn(CCC3OCCO3)nn2)CCS(=O)(=O)N1Cc1ccc(-c2ccccc2C(F)(F)F)cc1 (stereo unspecified),–,"inconclusive: 3.15 µM [inhibitor, full curve]"
CS/C(Nc1cc(Cl)ccc1Cl)=C(/C#N)C(=O)c1ccco1,–,active: 5.01 µM
O=C(Nc1c(C(=O)N2CCN(c3ccccc3)CC2)oc2ccccc12)c1ccco1,inactive: 3.66% [at 46.1 µM],–
CCCc1ccc(C(C)NC(=S)NCc2ccc(F)cc2)cc1 (stereo unspecified),–,"inconclusive: 7.94 µM [inhibitor, partial curve, poor fit]"
Clc1ccc(-c2nnc(-c3cccc4ccccc34)o2)cc1,–,"inconclusive: 10 µM [activator, partial curve, poor fit]"
Clc1ccc(Cn2nnc3ccccc32)cc1,–,"inconclusive: 31.6 µM [inhibitor, single point]"
O=C1NCCN(Cc2cccc(Oc3ccccc3)c2)C1CC(=O)N1CCCO1 (stereo unspecified),inactive: -1.51% [at 46.1 µM],–
COc1cc([N+](=O)[O-])cc(/C=N/NC(=O)C(O)(c2ccccc2)c2ccccc2)c1O,–,"inconclusive: 3.98 µM [inhibitor, single point]"
COc1c(/C=N/NC(=O)[C@H]2C[C@@H]2c2ccccc2)c(CCN(C)C(C)=O)cc2c1OCO2,–,"inconclusive: 11.2 µM [inhibitor, partial curve, poor fit]"
CC(C)=CC(=O)N1CCC(N2CCC(C(=O)NCC3CCCO3)CC2)CC1 (stereo unspecified),–,"inconclusive: 3.55 µM [inhibitor, partial curve, poor fit]"
Cc1ccc(C(CC(=O)O)NC(=O)c2ccc(S(=O)(=O)N3CCCC3)cc2)cc1 (stereo unspecified),inactive: 10.2%,–

# An excerpt from above in order of count of non-hydrogen atoms, rising:
SMILES,"activity change, negative = inhibition",Potency
Clc1ccc(-c2nnc(-c3cccc4ccccc34)o2)cc1,–,"inconclusive: 10 µM [activator, partial curve, poor fit]"
O=C1NCCN(Cc2cccc(Oc3ccccc3)c2)C1CC(=O)N1CCCO1 (stereo unspecified),inactive: -1.51% [at 46.1 µM],–
CC(C)C1C(=O)N(Cc2cn(CCC3OCCO3)nn2)CCS(=O)(=O)N1Cc1ccc(-c2ccccc2C(F)(F)F)cc1 (stereo unspecified),–,"inconclusive: 3.15 µM [inhibitor, full curve]"

# Next results.

SMILES,"activity change, negative = inhibition",Potency
COc1cc2c(cc1[N+](=O)[O-])-c1ccccc1C2,inactive: 17.6% [at 46.1 µM],–
CCCCc1cc(=O)oc2cc(OS(C)(=O)=O)ccc12,–,"inconclusive: 35.5 µM [activator, single point]"
COC(=O)c1ccccc1NC(=O)Cn1nnc(-c2ccc3c(c2)OCO3)n1,inactive: 1.47%,–
Cc1ccc(C2=Nc3ccccc3N(CC(=O)NCc3ccccc3Cl)C(=O)C2)cc1C,–,"inconclusive: 5.62 µM [activator, single point]"
COc1ccc(-n2ncc(C(=O)Nc3cccc(C(F)(F)F)c3)c2C2CCN(C(=O)OC(C)(C)C)CC2)cc1,–,"inconclusive: 14.1 µM [inhibitor, partial curve, poor fit]"
Cc1cc(NC(=O)CSc2nnnn2-c2ccc(C(C)C)cc2)no1,–,"inconclusive: 14.1 µM [inhibitor, partial curve, poor fit]"
Cc1ccc(S(=O)(=O)N(CC(=O)NCCSc2ccccn2)c2cc(C)cc(C)c2)cc1,–,"inconclusive: 35.5 µM [inhibitor, single point]"
Oc1ccc(NC(=S)N=Nc2c(O)[nH]c3ccccc23)cc1,–,"inconclusive: 10 µM [inhibitor, partial curve]"
CC1CCCN(S(=O)(=O)c2ccc(C(=O)Nc3nnc(-c4ccncc4)o3)cc2)C1 (stereo unspecified),–,"inconclusive: 35.5 µM [inhibitor, single point]"
CC1CCCC(=NNc2ccc3ccccc3n2)C1 (stereo unspecified),–,"inconclusive: 35.5 µM [inhibitor, single point]"
Cc1cc(=O)c2ccccc2[nH]1,–,"inconclusive: 32.6 µM [activator, single point]"
C=CCn1c(SCC(=O)c2ccc(Cl)cc2)nnc1-c1ccc2c(c1)OCO2,–,"inconclusive: 31.6 µM [inhibitor, partial curve, poor fit]"
CC1CCN(C(=O)CSc2nc3cccnc3n2C)CC1,inactive: 7.03%,–
CC(=O)Nc1ccc(Oc2cc(C#N)c(C#N)cc2N2CCCCCC2)cc1,–,"inconclusive: 35.5 µM [inhibitor, single point]"
COc1ccc(NC(=O)C(Cl)=C(Cl)Cl)cn1,–,"inconclusive: 35.5 µM [inhibitor, single point]"
O=C(NCC(c1cccs1)N1CCOCC1)c1ccc(Cl)cc1 (stereo unspecified),–,"inconclusive: 35.5 µM [inhibitor, single point]"
COc1ccc(/C=N/n2c(COc3ccccc3)n[nH]c2=S)cc1OC,–,"inconclusive: 7.08 µM [inhibitor, full curve, poor fit]"
COc1ccc(C(=O)OCC(N)=O)cc1[N+](=O)[O-],–,"inconclusive: 0.708 µM [inhibitor, single point]"
COCC1CCCN(C(=O)c2cc(COc3cncc(Cl)c3)on2)C1 (stereo unspecified),inactive: 0.516% [at 46.1 µM],–
CCCCn1c(N)c(N(CCOC)C(=O)c2oc3ccc(OC)cc3c2C)c(=O)[nH]c1=O,–,"inconclusive: 1.78 µM [inhibitor, partial curve, poor fit]"

# — PubChem BioAssay AID540256 (National Center for Advancing Translational Sciences (NCATS), 2011)
